At least one structure is not confirmed: it was looked up by name or label, or the drawing left a doubt.
Assays:
wild-type HCT-116 cells = experiment: Flow cytometry of metabolism and binding (EF5 antibody); type: cell-based, human
Description: (§1) FIG. 3 illustrates the results of flow cytometry analysis of HCT-116 cells stably expressing E. coli NfsA relative to HCT-116 wild-type cells after in vitro exposure to 20 μM of compounds 15, 93 and 67 for 2 hours. 1×10^6 cells were incubated with test compounds under oxic conditions. Samples were fixed and stained with EF5 antibody Alexa 488 ELK3.51 at 100 μg/ml. Samples were then analysed on a Becton Dickinson FACscan flow cytometer.
(§2) FIG. 4 illustrates the results of a second independent flow cytometry analysis of compound 15 and 93 metabolism and binding in wild-type HCT-116 cells, HCT-116 cells stably over-expressing cytochrome P450 reductase (CYPOR), a human one-electron reductase known to metabolise nitroheterocyclic and nitroaromatic compounds, or HCT-116 cells stably expressing the bacterial nitroreductase E. coli NfsA. 1×10^6HCT-116 cells were seeded in 6 well plates underaerobic conditions (21% O2, 5% CO2). After 2 h incubation, drug free control (wild-type HCT-116, foreground), 20 μM (wild-type HCT-116, second plot), 100 μM (wild-type HCT-116, third plot), 20 μM (HCT-116-CYPOR, forth plot), 100 μM (HCT-116-CYPOR, fifth plot) or 20 μM (HCT-116-NfsA, sixth plot) of compound 15 or 93 was added. After 2 h incubation cells were harvested and fixed with paraformaldehyde before being incubated overnight with 100 μl of 75 μg/ml EF5 CY5 conjugated antibody. Samples were then analysed on a Becton Dickinson FACscan flow cytometer.
FIG. 6 illustrates the results of flow cytometry analysis of compound 15 and 93 metabolism and binding in wild-type HCT-116 cells and HCT-116 cells stably over-expressing cytochrome P450 reductase (CYPOR), a human one-electron reductase known to metabolise nitroheterocyclic and nitroaromatic compounds. 1×10^6 HCT-116 cells were seeded in 6 well plates underanoxic conditions. […] Samples were then analysed on a Becton Dickinson FACscan flow cytometer.

[1] = One-electron reduction potential E(1) by pulse radiolysis; type: physicochemical; conditions: determined against methylviologen, E(1)MV2+/MV+. = −447 ± 7 mV
Source text: The E(1) values of many compounds can be obtained from the literature, (for example, Wardman, P. J. Phys. Chem. Ref. Data, 1989, 18, 1637-1755.) or determined by a number of methods. The pulse radiolysis method, for example, measures the equilibrium constant between the radical anions of the nitroheterocyclic or nitroaromatic compound, formed upon their 1-electron reduction, and reference standards such as viologen and quinone compounds, from which data the E(1) values of the compounds can be calculated. (Meisel and Czapski. J. Phys. Chem., 1975, 79, 1503-1509.)
(Anderson et al, J. Phys. Chem. A, 101, 9704-9709, 1997).

[2] = test system: human solid tumour xenograft NCI-H1299 (WT); experiment: Hypoxia-dependent binding by ex vivo flow cytometry with pimonidazole co-staining; type: in vivo, NIH-III nude mice; conditions: 60 mg/kg i.p.; tumours excised after 120 minutes, single cell suspension
Description: FIG. 11 illustrates the absence of hypoxic-dependent binding of compound 67 and compound 93 by flow cytometry in the human solid tumour xenograft NCI-H1299, with reference to hypoxia staining by compound 15 and pimonidazole (Hypoxyprobe™) as internal standards (positive controls). NCI-H1299 WT tumours were inoculated subcutaneously onto the flank of NIH-III nude mice. When the mixed tumours reached approximately 800 mm^3, mice were dosed i.p. with 60 mg/kg of pimonidazole, and 60 minutes later dosed with either 60 mg/kg of compound 15, or 60 mg/kg of compound 67, or 60 mg/kg of compound 93. After 120 minutes the tumours were excised and enzyme digested to form a single cell suspension before fixation in ice cold 80% ethanol. […] The ex-vivo tumour cell samples were analysed on a Becton Dickinson FACscan flow cytometer using FACS Diva software. Integrated fluorescence measurements were recorded for 10,000 single non-debris events. Fluorescence emission was monitored at 530 nm±20 and 670-700 nm for detection of Alexa-488 and CY5 conjugated monoclonal antibodies, respectively.

[3] = test system: human tumour xenografts harbouring 25% HCT-116 NfsA-expressing cells; experiment: Immunohistochemical detection of binding in mixed tumour xenograft; type: in vivo
[4] = test system: human solid tumour xenograft HCT116 (WT); experiment: Hypoxia-dependent binding by immunofluorescent microscopy with pimonidazole co-staining; type: in vivo, NIH-III nude mice; conditions: 60 mg/kg i.p., 60 minutes after 60 mg/kg pimonidazole; tumours excised after 120 minutes
Description: FIG. 9 illustrates the absence of hypoxic dependent binding of compound 67 in the human solid tumour xenograft HCT116 relative to compound 15 whilst including hypoxia co-staining by pimonidazole (Hypoxyprobe™) as an internal reference (positive control). HCT116 WT tumours were inoculated subcutaneously onto the flank of NIH-Ill nude mice. When the mixed tumours reached approximately 500 mm^3, mice were dosed i.p. with 60 mg/kg of pimonidazole, and 60 minutes later dosed with either 60 mg/kg of compound 15 or 60 mg/kg of compound 67. After 120 minutes the tumours were excised, and fixed in formalin before being embedded in paraffin wax. Tumour section were cut (5 microns) and mounted onto glass slides for immunodetection of bound adducts of compounds. Immunofluorescent microscopy was performed using a monoclonal antibody (Mab1, hybridoma clone 4.3.11.3) conjugated to Alexa-488 (green) for the detection of pimonidazole adducts, and monoclonal antibody ELK3-51 directly conjugated to the fluorophore CY5 (Ex/Em 650/670 nm) for detection of adducts formed by compound 15 or compound 67. The overlap of pimonidazole with either one of these markers appears as yellow. Images were acquired on a Zeiss LSM 710 confocal microscope (×20 magnification).

[5] = test system: human lung tumour xenograft NCI-H1299 harbouring approximately 5% NfsA-positive cells; experiment: In vivo binding by immunohistochemistry in mixed NfsA/WT xenograft; design: species or system NIH-III nude mice; conditions: 60 mg/kg i.p., tumours excised after 60 minutes; ELK3-51-CY5 antibody
Description: FIG. 8 illustrates the in vivo binding of compounds 15, 93 and 67 in the human lung tumour xenograft NCI-H1299 harbouring approximately 5% NfsA-positive cells. […] Mixed NfsA/WT NCI-H1299 cells were inoculated subcutaneously onto the flank of NIH-III nude mice. When the mixed tumours reached approximately 500 mm^3, mice were dosed i.p. with 60 mg/kg of either compound 15, compound 93 or compound 67. After 60 minutes the tumours were excised, and fixed in formalin before being embedded in paraffin wax. Tumour section were cut (5 microns) and mounted onto glass slides for immunodetection of bound adducts of compound 15, compound 93 or compound 67 using the monoclonal antibody ELK3-51 directly conjugated to the fluorophore CY5 (Ex/Em 650/670 nm). Fluorescent microscopy was employed to visualise the presence of cellular adducts of each test compound present in individual tumour cells. Image gain was reduced due to intense fluorescent signal indicating extensive adduct binding. Images were acquired on a Zeiss LSM 710 confocal microscope (×20 magnification).

[6] = test system: HCT-116 cells stably expressing E. coli NfsA; experiment: Flow cytometry of metabolism and cellular retention (EF5 antibody); type: cell-based, human; conditions: 20 μM
Description: as §1
as §2, with “After 2 h incubation cells were harvested and fixed with paraformaldehyde before being incubated overnight with 100 μl of 75 μg/ml EF5 CY5 conjugated antibody.” left out

[7] = test system: human solid tumour xenograft NCI-H1299 (WT); experiment: Hypoxia-dependent binding by fluorescent immunohistochemistry with pimonidazole co-staining; type: in vivo, NIH-III nude mice; conditions: 60 mg/kg i.p., 60 minutes after 60 mg/kg pimonidazole; tumours excised after 120 minutes
Description: FIG. 10 illustrates the absence of hypoxic-dependent binding of compound 67 and compound 93 by fluorescent immune-histochemistry in the human solid tumour xenograft NCI-H1299, with reference to hypoxia staining by compound 15 and pimonidazole (Hypoxyprobe™) as internal standards (positive controls). NCI-H1299 WT tumours were inoculated subcutaneously onto the flank of NIH-Ill nude mice. When the mixed tumours reached approximately 800 mm^3, mice were dosed i.p. with 60 mg/kg of pimonidazole, and 60 minutes later dosed with either 60 mg/kg of compound 15, or 60 mg/kg of compound 67, or 60 mg/kg of compound 93. After 120 minutes the tumours were excised, and fixed in formalin before being embedded in paraffin wax. Tumour section were cut (5 microns) and mounted onto glass slides for immunodetection of bound adducts of compounds. Immunofluorescent microscopy was performed using a monoclonal antibody (Mab1, hybridoma clone 4.3.11.3) conjugated to Alexa-488 (Ex/Em 499/519; green) for the detection of pimonidazole adducts, and monoclonal antibody ELK3-51 directly conjugated to the fluorophore CY5 (Ex/Em 650/670 nm; red) for detection of adducts formed by compound 15 or compound 67 or compound 93. The overlap of pimonidazole with any one of these markers appears as yellow. Images were acquired on a Zeiss LSM 710 confocal microscope (×20 magnification).

[8] = test system: HCT-116 wild-type xenografts; experiment: Immunohistochemical detection of binding in wild-type tumour xenograft; type: in vivo, human; conditions: 0% NfsA-expressing cells

O=C(Cn1ccnc1[N+](=O)[O-])NCC(F)(F)C(F)(F)F [Compound 15, 2-(2-nitro-1H-imidazol-1-yl)-N-(2,2,3,3,3-pentafluoropropyl)acetamide, reference compound]
Metabolism and binding by FACS, wild-type HCT-116 cells (FIG. 4) (wild-type HCT-116 cells; 20 μM and 100 μM, 2 h, aerobic conditions): minimal metabolism and binding | Metabolism and binding by FACS, wild-type HCT-116 cells, anoxia (FIG. 6) (wild-type HCT-116 cells; 20 μM and 100 μM, 2 h, anoxic conditions): significant dose-dependent and reductase dependent increases in metabolism and binding | Metabolism and binding by FACS, wild-type HCT-116 cells (FIG. 3) (wild-type HCT-116 cells; 20 μM, 2 hours, oxic conditions (21% O2, 5% CO2)): minimal metabolism and binding | E(1)/V [1]: −0.395 V | Hypoxia-dependent binding in NCI-H1299 WT tumours, flow cytometry (FIG. 11) [2]: bind and thus detect these hypoxic tumour cells | Binding in mixed tumour xenograft with 25% E. coli NfsA expressing HCT-116 cells (FIG. 7) [3]: significantly enhanced EF5 metabolism, binding and retention | Hypoxia-dependent binding in HCT116 WT tumours (FIG. 9) [4]: detects an identical set of hypoxic tumour cells as seen by pimonidazole | Detection of NfsA expressing cells after in vivo binding (FIG. 8) [5]: readily detected by immunohistochemistry with single cell resolution | Metabolism and cellular retention by FACS, HCT-116 NfsA cells (FIG. 4) ([6]; 2 h, aerobic conditions): excellent substrates for E. coli NfsA | Metabolism and cellular retention by FACS, HCT-116 NfsA cells (FIG. 3) ([6]; 2 hours, oxic conditions (21% O2, 5% CO2)): excellent substrates for E. coli NfsA | Hypoxia-dependent binding in NCI-H1299 WT tumours, immunofluorescent microscopy (FIG. 10) [7]: detects an identical set of hypoxic tumour cells as that seen by pimonidazole | Binding in HCT-116 wild-type xenografts (FIG. 7) [8]: background signal of EF5 binding can be observed

— patent US20150010474A1, “Compounds And Methods For Selective Imaging And/Or Ablation” (Auckland Uniservices Limited, priority 2011, published 2015)
